Results taken from the supplement of paper PMC10849652.
This is one part of the list.

By UniProt entry, the sequences of proteins in these tests, tags left out. Where a name states a change or a piece, a line headed by the entry shows the natural chain unless it says otherwise.
UniProt Q9UNS2: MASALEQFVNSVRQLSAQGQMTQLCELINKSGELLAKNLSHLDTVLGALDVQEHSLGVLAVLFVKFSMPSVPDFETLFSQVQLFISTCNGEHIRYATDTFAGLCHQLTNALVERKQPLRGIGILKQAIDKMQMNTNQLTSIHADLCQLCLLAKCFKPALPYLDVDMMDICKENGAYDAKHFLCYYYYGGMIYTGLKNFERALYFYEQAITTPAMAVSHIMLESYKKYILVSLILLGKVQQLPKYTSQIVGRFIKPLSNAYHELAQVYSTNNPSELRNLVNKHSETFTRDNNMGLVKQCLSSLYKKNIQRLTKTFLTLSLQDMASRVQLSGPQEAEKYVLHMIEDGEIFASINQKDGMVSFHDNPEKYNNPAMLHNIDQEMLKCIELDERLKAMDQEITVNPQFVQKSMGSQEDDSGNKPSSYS
UniProt Q8N668, whole entry, looked up: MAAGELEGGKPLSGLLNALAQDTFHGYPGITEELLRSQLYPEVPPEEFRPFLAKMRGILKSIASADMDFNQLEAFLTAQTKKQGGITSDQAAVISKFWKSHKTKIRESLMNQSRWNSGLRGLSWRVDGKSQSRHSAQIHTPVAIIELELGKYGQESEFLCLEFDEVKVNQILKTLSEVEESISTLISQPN
UniProt Q96KP4: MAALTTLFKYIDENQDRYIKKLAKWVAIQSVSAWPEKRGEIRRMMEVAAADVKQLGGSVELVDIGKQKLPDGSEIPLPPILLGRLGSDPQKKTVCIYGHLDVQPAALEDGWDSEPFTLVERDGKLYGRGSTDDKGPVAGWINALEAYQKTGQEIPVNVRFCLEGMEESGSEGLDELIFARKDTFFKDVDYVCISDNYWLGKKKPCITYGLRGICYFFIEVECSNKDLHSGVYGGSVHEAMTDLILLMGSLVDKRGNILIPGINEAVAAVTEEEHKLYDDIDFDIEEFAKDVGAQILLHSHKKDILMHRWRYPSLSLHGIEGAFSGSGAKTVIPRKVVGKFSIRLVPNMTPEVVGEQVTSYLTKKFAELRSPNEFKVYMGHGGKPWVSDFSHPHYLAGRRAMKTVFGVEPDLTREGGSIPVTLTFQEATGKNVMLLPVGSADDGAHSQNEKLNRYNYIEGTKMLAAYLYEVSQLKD
UniProt Q99715: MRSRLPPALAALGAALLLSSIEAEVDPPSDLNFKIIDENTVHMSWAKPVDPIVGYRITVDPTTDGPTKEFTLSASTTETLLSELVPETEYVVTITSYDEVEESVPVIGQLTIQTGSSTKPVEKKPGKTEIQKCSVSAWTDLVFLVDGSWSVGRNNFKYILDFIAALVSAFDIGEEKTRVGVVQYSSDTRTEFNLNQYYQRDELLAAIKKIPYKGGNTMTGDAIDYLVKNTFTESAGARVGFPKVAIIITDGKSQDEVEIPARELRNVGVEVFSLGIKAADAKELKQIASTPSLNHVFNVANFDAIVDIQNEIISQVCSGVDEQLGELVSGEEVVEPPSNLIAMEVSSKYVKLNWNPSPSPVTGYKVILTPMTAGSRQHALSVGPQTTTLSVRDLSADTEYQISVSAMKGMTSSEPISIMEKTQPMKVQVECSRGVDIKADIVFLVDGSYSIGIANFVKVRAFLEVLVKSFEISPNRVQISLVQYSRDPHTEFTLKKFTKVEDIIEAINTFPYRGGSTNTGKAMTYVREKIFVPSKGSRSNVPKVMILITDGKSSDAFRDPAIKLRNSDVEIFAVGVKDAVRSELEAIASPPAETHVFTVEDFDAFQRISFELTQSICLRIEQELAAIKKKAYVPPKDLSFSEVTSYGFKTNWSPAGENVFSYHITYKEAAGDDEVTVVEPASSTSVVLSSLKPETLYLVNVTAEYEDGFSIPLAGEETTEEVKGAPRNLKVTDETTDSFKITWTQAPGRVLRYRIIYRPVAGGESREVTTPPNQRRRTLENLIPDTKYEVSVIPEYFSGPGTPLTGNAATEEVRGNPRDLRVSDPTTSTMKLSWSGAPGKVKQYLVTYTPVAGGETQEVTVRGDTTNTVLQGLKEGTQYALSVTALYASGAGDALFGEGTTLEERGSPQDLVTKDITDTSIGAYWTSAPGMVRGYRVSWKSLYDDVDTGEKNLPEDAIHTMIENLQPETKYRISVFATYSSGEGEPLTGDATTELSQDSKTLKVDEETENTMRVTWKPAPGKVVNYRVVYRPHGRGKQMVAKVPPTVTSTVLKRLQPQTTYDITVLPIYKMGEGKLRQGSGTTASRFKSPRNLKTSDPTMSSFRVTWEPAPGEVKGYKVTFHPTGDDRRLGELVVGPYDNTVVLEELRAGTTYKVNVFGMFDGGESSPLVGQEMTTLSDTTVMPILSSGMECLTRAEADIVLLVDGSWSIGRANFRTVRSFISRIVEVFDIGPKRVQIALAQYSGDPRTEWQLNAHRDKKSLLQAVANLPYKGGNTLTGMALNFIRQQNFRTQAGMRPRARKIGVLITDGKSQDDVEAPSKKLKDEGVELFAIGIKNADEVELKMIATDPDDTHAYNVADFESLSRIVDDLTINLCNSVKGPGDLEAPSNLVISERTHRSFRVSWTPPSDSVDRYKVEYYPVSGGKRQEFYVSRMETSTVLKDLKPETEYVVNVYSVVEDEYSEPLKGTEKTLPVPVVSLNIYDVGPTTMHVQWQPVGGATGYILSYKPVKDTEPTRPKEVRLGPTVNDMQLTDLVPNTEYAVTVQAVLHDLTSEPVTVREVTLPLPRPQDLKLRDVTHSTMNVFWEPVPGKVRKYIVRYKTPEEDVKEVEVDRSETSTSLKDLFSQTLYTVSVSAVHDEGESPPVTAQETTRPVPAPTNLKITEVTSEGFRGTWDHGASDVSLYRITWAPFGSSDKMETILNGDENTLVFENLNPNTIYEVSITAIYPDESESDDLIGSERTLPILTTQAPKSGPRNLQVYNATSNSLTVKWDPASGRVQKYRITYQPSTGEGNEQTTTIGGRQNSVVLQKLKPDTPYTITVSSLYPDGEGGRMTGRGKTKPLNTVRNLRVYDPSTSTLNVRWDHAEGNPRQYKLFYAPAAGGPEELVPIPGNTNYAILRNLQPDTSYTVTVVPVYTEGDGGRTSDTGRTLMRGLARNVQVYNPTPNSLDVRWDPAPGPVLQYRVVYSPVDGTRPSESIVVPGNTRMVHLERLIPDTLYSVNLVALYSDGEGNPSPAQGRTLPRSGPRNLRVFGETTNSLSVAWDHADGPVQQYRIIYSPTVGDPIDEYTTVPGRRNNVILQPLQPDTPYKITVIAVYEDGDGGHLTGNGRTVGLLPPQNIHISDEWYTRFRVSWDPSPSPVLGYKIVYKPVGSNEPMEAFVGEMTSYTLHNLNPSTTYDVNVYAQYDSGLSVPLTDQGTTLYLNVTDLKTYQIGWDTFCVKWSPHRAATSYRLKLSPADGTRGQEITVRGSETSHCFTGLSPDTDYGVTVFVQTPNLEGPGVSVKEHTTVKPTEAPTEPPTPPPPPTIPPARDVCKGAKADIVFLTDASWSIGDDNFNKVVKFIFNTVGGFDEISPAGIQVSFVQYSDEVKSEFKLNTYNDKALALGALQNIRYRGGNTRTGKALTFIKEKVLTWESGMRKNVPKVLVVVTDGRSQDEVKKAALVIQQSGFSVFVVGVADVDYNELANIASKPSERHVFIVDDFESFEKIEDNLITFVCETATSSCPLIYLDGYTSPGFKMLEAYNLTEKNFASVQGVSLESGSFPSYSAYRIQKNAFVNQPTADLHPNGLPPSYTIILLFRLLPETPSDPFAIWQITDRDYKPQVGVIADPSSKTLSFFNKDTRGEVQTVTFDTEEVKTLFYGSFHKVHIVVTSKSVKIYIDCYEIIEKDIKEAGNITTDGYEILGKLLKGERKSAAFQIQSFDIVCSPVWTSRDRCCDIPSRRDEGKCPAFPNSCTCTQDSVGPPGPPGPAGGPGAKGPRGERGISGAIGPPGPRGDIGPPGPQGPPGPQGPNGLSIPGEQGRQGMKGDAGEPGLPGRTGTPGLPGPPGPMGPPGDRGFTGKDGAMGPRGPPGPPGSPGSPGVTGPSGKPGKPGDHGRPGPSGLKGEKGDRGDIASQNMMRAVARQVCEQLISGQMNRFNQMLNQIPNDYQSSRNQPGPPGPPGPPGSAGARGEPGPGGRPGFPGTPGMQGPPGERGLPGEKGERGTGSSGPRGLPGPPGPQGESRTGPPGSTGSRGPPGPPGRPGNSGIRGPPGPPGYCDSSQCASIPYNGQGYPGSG
UniProt Q9UI42: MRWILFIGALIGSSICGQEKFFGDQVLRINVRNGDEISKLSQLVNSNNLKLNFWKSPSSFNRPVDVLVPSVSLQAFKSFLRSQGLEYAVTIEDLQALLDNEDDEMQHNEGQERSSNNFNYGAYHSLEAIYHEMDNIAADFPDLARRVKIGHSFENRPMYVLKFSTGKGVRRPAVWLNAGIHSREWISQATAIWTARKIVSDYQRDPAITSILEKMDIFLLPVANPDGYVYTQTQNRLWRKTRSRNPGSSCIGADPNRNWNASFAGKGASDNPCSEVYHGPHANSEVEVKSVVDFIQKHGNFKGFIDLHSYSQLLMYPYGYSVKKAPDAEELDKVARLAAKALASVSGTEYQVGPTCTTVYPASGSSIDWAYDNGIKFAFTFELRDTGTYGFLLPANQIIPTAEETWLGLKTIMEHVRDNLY
UniProt Q7Z4G1, whole entry, looked up: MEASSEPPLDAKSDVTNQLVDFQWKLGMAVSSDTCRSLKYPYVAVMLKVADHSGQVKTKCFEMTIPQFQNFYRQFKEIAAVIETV

What was measured:
Assay in all cases: log2 fold change, soluble protein after heating vs DMSO (PISA); higher = thermal stabilisation; K562 lysate, 10 uM; active = over 0.2 and 3.5 SD of the protein, either way, in both replicates (recomputed)
[1] = compound: CC1=C2C(=CC=C1)N=C(N(C2=O)C3=CC=CC=C3C)CN4C=NC5=C(N=CN=C54)N
How it was run: (§1)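 Dounce homogenisation of K562 pellets in PBS pH 7.4 with 1 mM MgCl2 produced a crude extract, used at 1 mg/mL protein. Exposure to 10 μM compound lasted 30 min, and aliquots were then heated for 3 min across 48°C-58°C, pooled and brought to 0.5% NP-40 at 4°C. The supernatant after 21,000xg for 90 min was quantified by TMTpro 16plex LC-MS/MS with channel sums equalised. Duplicate values are given as log-two fold change in thermal stability relative to solvent controls.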

[2] = compound: c1ccc([C@@H]2C[C@H]2NC2CCNCC2)cc1
How it was run: as §1

[3] = compound: C1=CC=C(C=C1)[C@H](COC2=CC3=C(C=C2)NC(=O)N3)NC(=O)C4=CC=CN(C4=O)CC5=CC(=C(C=C5)F)F
How it was run: as §1

[4] = compound: CC1=C(SC2=C1C(=N[C@H](C3=NN=C(N32)C)CC(=O)N)C4=CC=C(C=C4)Cl)C
How it was run: as §1

[5] = compound: Cc1sc2c(c1C)C(c1ccc(Cl)cc1)=N[C@@H](CC(=O)OC(C)(C)C)c1nnc(C)n1-2
How it was run: as §1

Measured: log2 fold change

COPS3 isoform 2 (UniProt Q9UNS2)
inactive: [1] -0.052 | [2] -0.699

COMMD1 (UniProt Q8N668)
inactive: [3] 0.046 | [4] -0.024 | [1] -0.048 | [5] 0.008 | [2] -0.082

CNDP2 (UniProt Q96KP4)
inactive: [3] 0.017 | [4] 0.017 | [1] -0.022 | [5] -0.006 | [2] -0.145

COL12A1 (UniProt Q99715)
inactive: [1] 0.08 | [5] -0.078

CPA4 (UniProt Q9UI42)
inactive: [3] -0.151 | [4] 0.013 | [2] -0.042

COMMD6 isoform 2 (UniProt Q7Z4G1)
inactive: [3] 0.017 | [4] 0.069 | [5] 0.165 | [2] 0.061
